Data as given in PubChem BioAssay AID1259308 (NCATS, 2017).

- Assay: 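Knock-downs that increase output of a recombinant reporter protein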 (primary screen)
- Cell system: human HEK293 embryonic kidney cells stably expressing firefly luciferase (HEK-CMV-Luc2-Hygro)
- Reagent: single siRNA against human genes, 0.8 pmol siRNA per well
- Duration: 72 h
- Measurement: 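Reporter luminescence and viable-cell signal on separate replicate plates, given as percent of non-targeting control and median/MAD z-scores, plus per-cell luciferase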
- Reading the numbers: total luciferase, z-score and total luciferase, % of control: higher = more reporter protein produced; luciferase per cell, z-score: higher = more reporter output per viable cell; viable cells, % of control: higher = more viable cells
- Rule for the call: 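An siRNA counts as active if its total luciferase robust z-score exceeds 3; genes with two or more such siRNAs out of three were retested with fresh siRNAs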
- Meaning of the calls: active = raised luciferase; inactive = no rise
This is one part, drawn at random, of about 59,000 deposited reagents. Of all reagents, about 1,510 (2.6%) are marked active. 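Calls use total luciferase alone and ignore viability, so some active siRNAs may act by altering cell number.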 Reagents against one gene are numbered here.

| Target gene | siRNA no. | total luciferase, z-score | total luciferase, % of control | luciferase per cell, z-score | viable cells, % of control | Outcome |
| --- | --- | --- | --- | --- | --- | --- |
| ABHD10 | 1 | 0.975 | 101 | 0.41 | 102 | inactive |
| ABHD10 | 2 | 0.366 | 89.2 | -0.104 | 102 | inactive |
| ABHD10 | 3 | -0.726 | 67.4 | -1.21 | 104 | inactive |
| DLGAP5 | 1 | 0.425 | 90.3 | 0.618 | 85.8 | inactive |
| DLGAP5 | 2 | 0.16 | 85.1 | 0.0158 | 94.7 | inactive |
| DLGAP5 | 3 | -0.601 | 69.9 | -1.01 | 102 | inactive |
| KRT15 | 1 | -0.648 | 69 | -0.945 | 98.9 | inactive |
| KRT15 | 2 | 2.72 | 136 | 1.7 | 97.1 | inactive |
| KRT15 | 3 | 0.0328 | 82.5 | -0.647 | 109 | inactive |
| CIMIP2C | 1 | -0.219 | 77.5 | 0.183 | 82.5 | inactive |
| CIMIP2C | 2 | 0.737 | 96.6 | 0.183 | 103 | inactive |
| CIMIP2C | 3 | -0.872 | 64.5 | -0.873 | 90.8 | inactive |
| CRX | 1 | -1.53 | 51.5 | -1.78 | 92 | inactive |
| CRX | 2 | 0.34 | 88.7 | -0.142 | 103 | inactive |
| CRX | 3 | -0.28 | 76.3 | -0.253 | 91.2 | inactive |
| GATAD2A | 1 | -2.72 | 27.7 | -0.89 | 39.2 | inactive |
| GATAD2A | 2 | 0.912 | 100 | 1.38 | 77.7 | inactive |
| GATAD2A | 3 | -1.11 | 59.8 | -1.48 | 98.7 | inactive |
| ZDHHC12 | 1 | 0.0643 | 83.2 | -0.0296 | 93.7 | inactive |
| ZDHHC12 | 2 | 1.16 | 105 | 0.64 | 99.1 | inactive |
| ZDHHC12 | 3 | -0.126 | 79.4 | -0.177 | 92.9 | inactive |
| TGM5 | 1 | -0.335 | 75.2 | -0.792 | 104 | inactive |
| TGM5 | 2 | -0.161 | 78.7 | -0.631 | 104 | inactive |
| TGM5 | 3 | 2.15 | 125 | 0.929 | 109 | inactive |
| RPL32 | 1 | -2.53 | 31.5 | -1.04 | 46.3 | inactive |
| RPL32 | 2 | -2.38 | 34.6 | 0.161 | 37.1 | inactive |
| RPL32 | 3 | -0.453 | 72.9 | -0.738 | 98.9 | inactive |
| ZWILCH | 1 | -0.908 | 63.8 | -0.654 | 84.7 | inactive |
| ZWILCH | 2 | -0.252 | 76.9 | -0.072 | 87.6 | inactive |
| ZWILCH | 3 | -0.0765 | 80.4 | 1.87 | 54.8 | inactive |
| GLS | 1 | -0.996 | 62.1 | -0.974 | 89.6 | inactive |
| GLS | 2 | -0.0106 | 81.7 | 0.348 | 83.3 | inactive |
| GLS | 3 | -1.1 | 60 | -0.57 | 77.9 | inactive |
| KCNN2 | 1 | 2.96 | 141 | 1.93 | 94.5 | inactive |
| KCNN2 | 2 | -0.057 | 80.8 | 0.589 | 77.3 | inactive |
| KCNN2 | 3 | 0.511 | 92.1 | 0.135 | 99.3 | inactive |
| TEX30 | 1 | 1.32 | 108 | 2.3 | 65.9 | inactive |
| TEX30 | 2 | 1.25 | 107 | 0.156 | 114 | inactive |
| TEX30 | 3 | 0.226 | 86.4 | 0.558 | 83.3 | inactive |
| ADGB | 1 | -1.31 | 55.8 | -0.278 | 67.1 | inactive |
| ADGB | 2 | -1.09 | 60.3 | -1.08 | 89.5 | inactive |
| ADGB | 3 | -0.608 | 69.8 | -0.0905 | 79.9 | inactive |
| ITGB4 | 1 | -1 | 62 | -0.662 | 82.4 | inactive |
| ITGB4 | 2 | -0.682 | 68.3 | -1.13 | 103 | inactive |
| ITGB4 | 3 | 2.1 | 124 | 1.32 | 97.7 | inactive |
| DSTYK | 1 | -0.586 | 70.2 | -0.35 | 86 | inactive |
| DSTYK | 2 | -0.092 | 80.1 | -0.196 | 94.2 | inactive |
| DSTYK | 3 | -0.0428 | 81 | -0.729 | 110 | inactive |
| GPKOW | 1 | -0.698 | 68 | -0.752 | 92.6 | inactive |
| GPKOW | 2 | 1.06 | 103 | 1.57 | 76.1 | inactive |
| GPKOW | 3 | -0.431 | 73.3 | -0.675 | 97.9 | inactive |
| ABRAXAS1 | 1 | -0.401 | 73.9 | -0.258 | 88.4 | inactive |
| ABRAXAS1 | 2 | -1.13 | 59.4 | -1.56 | 100 | inactive |
| ABRAXAS1 | 3 | 2.33 | 128 | 1.65 | 92.6 | inactive |
| FYB1 | 1 | -0.282 | 76.3 | 0.319 | 78.4 | inactive |
| FYB1 | 2 | -1.87 | 44.7 | -1.67 | 77.5 | inactive |
| FYB1 | 3 | -1.17 | 58.7 | -0.669 | 78.2 | inactive |
| RASD2 | 1 | -0.497 | 72 | 0.221 | 75.9 | inactive |
| RASD2 | 2 | 0.256 | 87 | 0.273 | 90.5 | inactive |
| RASD2 | 3 | 0.822 | 98.2 | 1.03 | 83.7 | inactive |
| RPL31P7 | 1 | -1.5 | 52 | -1.95 | 97.1 | inactive |
| RPL31P7 | 2 | -0.116 | 79.6 | -0.0869 | 91 | inactive |
| RPL31P7 | 3 | -1.58 | 50.5 | -1.82 | 91.2 | inactive |
| OR10G8 | 1 | -0.315 | 75.6 | -0.207 | 89.2 | inactive |
| OR10G8 | 2 | -0.0365 | 81.2 | -0.0554 | 92 | inactive |
| OR10G8 | 3 | 0.341 | 88.7 | 0.515 | 86.5 | inactive |
| POLR1E | 1 | -0.684 | 68.3 | -0.519 | 87.5 | inactive |
| POLR1E | 2 | -0.0524 | 80.8 | -0.679 | 108 | inactive |
| POLR1E | 3 | 1.35 | 109 | 2.83 | 57.7 | inactive |
| RLIG1 | 1 | 0.772 | 97.2 | 0.975 | 84 | inactive |
| RLIG1 | 2 | 1.15 | 105 | 1.13 | 86.9 | inactive |
| RLIG1 | 3 | -0.949 | 63 | -0.77 | 86.2 | inactive |
| AKR1C8 | 1 | -0.0508 | 80.9 | -0.207 | 95.4 | inactive |
| AKR1C8 | 2 | -0.375 | 74.4 | -0.799 | 103 | inactive |
| AKR1C8 | 3 | 0.419 | 90.2 | 0.297 | 93.2 | inactive |
